Experimental data taken from paper PMC6836825, “K^+ Channel-SEC11 Binding Exchange Regulates SNARE Assembly for Secretory Traffic^1” (Plant Physiology, 2019).

The chains behind the UniProt entries cited, without tags or fusion partners. Where a name states a change or a piece, a line headed by the entry shows the natural chain unless it says otherwise. Residues count along the entry.
UniProt Q39128, residues 1-63: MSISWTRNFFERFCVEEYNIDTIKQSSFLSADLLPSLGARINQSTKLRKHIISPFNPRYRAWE
UniProt P92960, residues 67-91: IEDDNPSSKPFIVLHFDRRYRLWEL
UniProt Q9ZSD4: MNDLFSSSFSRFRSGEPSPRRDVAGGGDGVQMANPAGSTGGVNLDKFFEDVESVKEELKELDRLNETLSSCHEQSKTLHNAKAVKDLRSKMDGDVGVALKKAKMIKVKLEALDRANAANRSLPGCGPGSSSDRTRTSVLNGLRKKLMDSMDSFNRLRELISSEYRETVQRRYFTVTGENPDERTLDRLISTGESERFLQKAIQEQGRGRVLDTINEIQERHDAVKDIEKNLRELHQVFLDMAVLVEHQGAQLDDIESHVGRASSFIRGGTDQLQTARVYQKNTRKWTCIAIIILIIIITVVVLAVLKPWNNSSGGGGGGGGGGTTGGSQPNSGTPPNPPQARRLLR
UniProt Q9ZTW3: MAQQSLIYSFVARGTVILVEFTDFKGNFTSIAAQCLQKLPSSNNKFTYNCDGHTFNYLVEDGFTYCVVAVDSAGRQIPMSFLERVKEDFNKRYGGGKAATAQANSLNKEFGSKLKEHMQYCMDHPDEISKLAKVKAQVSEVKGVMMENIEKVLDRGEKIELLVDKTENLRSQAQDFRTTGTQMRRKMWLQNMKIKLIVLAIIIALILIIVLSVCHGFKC

Key:
[1] = target: KAT1^1–63-Flag6-StrepII (Arabidopsis thaliana) (UniProt Q39128); experiment: pull-down; channel peptide immobilised on Strep-Tactin resin, mixed together with SYP121^ΔC, SNAP33 and VAMP721^ΔC; overnight at 4°C; SDS-PAGE, Coomassie; both purified
[2] = target: KAT1^1–63-Flag6-StrepII (Arabidopsis thaliana) (UniProt Q39128); experiment: pull-down; KC1^67–91-Flag3-StrepII or KAT1^1–63-Flag6-StrepII immobilised on Strep-Tactin resin; one prey at a time in 3-fold excess; overnight at 4°C; SDS-PAGE, Coomassie; both purified
[3] = target: KAT1^1–63-Flag6-StrepII (Arabidopsis thaliana) (UniProt Q39128); experiment: pull-down; channel peptide immobilised on Strep-Tactin resin; SNAREs in binary combinations, fixed 5 μM SYP121^ΔC or VAMP721^ΔC with 0, 0.3-, 1- and 3-fold VAMP721^ΔC or SNAP33; overnight at 4°C; SDS-PAGE, Coomassie; both purified
[4] = target: KAT1^1–63-Flag6-StrepII (Arabidopsis thaliana) (UniProt Q39128); experiment: pull-down; channel peptide immobilised on Strep-Tactin resin; cognate SNAREs singly, in binary and in tertiary combinations without and with SEC11 at 0.3-, 1- and 3-fold the concentration of SNAREs; overnight at 4°C; SDS-PAGE, Coomassie; both purified
[5] = target: KC1^67–91-Flag3-StrepII (Arabidopsis thaliana) (UniProt P92960); experiment: pull-down; channel peptide immobilised on Strep-Tactin resin, mixed together with SYP121^ΔC, SNAP33 and VAMP721^ΔC; overnight at 4°C; SDS-PAGE, Coomassie; both purified
[6] = target: KC1^67–91-Flag3-StrepII (Arabidopsis thaliana) (UniProt P92960); experiment: pull-down; KC1^67–91-Flag3-StrepII or KAT1^1–63-Flag6-StrepII immobilised on Strep-Tactin resin; one prey at a time in 3-fold excess; overnight at 4°C; SDS-PAGE, Coomassie; both purified
[7] = target: KC1^67–91-Flag3-StrepII (Arabidopsis thaliana) (UniProt P92960); experiment: SEC; KC1^67–91 peptide comixed with SYP121^ΔC, SNAP33 and VAMP721^ΔC at the start of incubation (Combined); Superdex 200 10/300, 50 mM Tris-HCl, 150 mM NaCl, pH 8.0; SDS-PAGE of fractions; both purified
[8] = target: KC1^67–91-Flag3-StrepII (Arabidopsis thaliana) (UniProt P92960); experiment: pull-down; channel peptide immobilised on Strep-Tactin resin; SNAREs in binary combinations, fixed 5 μM SYP121^ΔC or VAMP721^ΔC with 0, 0.3-, 1- and 3-fold VAMP721^ΔC or SNAP33; overnight at 4°C; SDS-PAGE, Coomassie; both purified
[9] = target: KC1^67–91-Flag3-StrepII (Arabidopsis thaliana) (UniProt P92960); experiment: pull-down; channel peptide immobilised on Strep-Tactin resin; cognate SNAREs singly, in binary and in tertiary combinations without and with SEC11 at 0.3-, 1- and 3-fold the concentration of SNAREs; overnight at 4°C; SDS-PAGE, Coomassie; both purified

binding [1] | binding [2] | binding [3] | binding [4] | binding [5] | binding [6] | binding [7] | binding [8] | binding [9] | Substance
binds | binds | binds | binds |  |  |  |  |  | SYP121^ΔC-Flag-6His (from UniProt Q9ZSD4) (domain or fragment)
binds | binds | binds | binds | binds | binds | binds | binds | binds | VAMP721^ΔC-Flag-6His (from UniProt Q9ZTW3) (domain or fragment)

These are yes or no findings as the source states them, for the method shown. A result given as binding can be weak or reduced; the word gives no strength.
